# Primary screen of a compound library

Data taken from ChEMBL document CHEMBL3988442, “University of Dundee, Small-Polar-MMV Screening Library” (2021).

Each number is a percent effect as filed. How 0% and 100% were set is not recorded. Most values in the screen are low, and negative values occur. Compounds were drawn at random from those tested, without regard to their results. A dash means the value is not listed here; it may have been measured.

Mtb growth Cornell: 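Whole-cell assay for inhibitors of Mycobacterium tuberculosis growth, labelled Cornell in the record; the read-out is not stated. The concentration is filed as 10 mM, unlikely as a test dose, so the dose is not known. The record gives no direction; compounds strong in two other growth screens of this library score well above the rest, so higher reads as stronger inhibition. Size under these conditions: about 53,000 compounds, about 900 of them at 50% or above in at least one test.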
Mtb heat-shock: 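Assay on Mycobacterium tuberculosis, filed only as a heat shock assay from Cornell; the read-out is not stated. The concentration is filed as 10 mM, unlikely as a test dose, so the dose is not known. Higher reads as stronger inhibition (inferred: compounds with an IC50 in retests scored well above the rest). Of about 69,000 compounds tested this way, about 930 (1.4%) reached 50% or more in at least one test.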

| SMILES | Mtb growth Cornell | Mtb heat-shock |
|---|---|---|
| `COc1ccc2c(c1)c(C(=O)Nc1n[nH]c(C(C)C)n1)cn2C(C)C` | 3.992 | -7.243 |
| `CCOCC(=O)NCCc1nc(C)cc(C(F)(F)F)n1` | 8.236 | 16.3 |
| `O=C(c1csc(-c2ccco2)n1)N1CCN2CCCCC2C1` (centres unmarked) | 24.55 | -23.09 |
| `CC(C)(O)CN1CCN(C(=O)c2cccc(CC#N)c2)CC1` | - | -18.81 |
| `Cn1ncc2cnn(CC(O)COc3cccc4[nH]ccc34)c2c1=O` (centres unmarked) | -51.83 | -14.33 |
| `O=C(CC1CC1)N1CCC2(COCc3cnc(N4CCOCC4)nc32)C1` (centres unmarked) | 17.29 | 6.453 |
| `[H][C@@]12CN(C)CCO[C@]1([H])CN(S(=O)(=O)c1ccc(OC)cc1)C2` | 9.361 | 20.73 |
| `COc1ccccc1CC(=O)N(C)Cc1cc(C)on1` | -6.776 | -18.24 |
| `[H][C@@]12CCCCN(C)[C@]1([H])[C@@H](c1ccccc1)CCN2C(=O)c1ccccn1` | -56.75 | 3.468 |
| `O=C(Cc1ccccc1)N1CCC2(CCN2Cc2ccc(F)cc2)C1.O=C(O)C(F)(F)F` (centres unmarked) | 16.35 | -4.759 |
| `COC(=O)C(C)NCc1ccc2[nH]c(C)c(C)c2c1` (centres unmarked) | 7.635 | 5.571 |
| `O=C(CSc1ccc2c(c1)OCCO2)NS(=O)(=O)c1ccccc1F` | -17.9 | -14.39 |
| `O=C(O)C(F)(F)F.[H][C@@]12CCN(Cc3cnn(C)c3)[C@]1([H])CC[C@@H](C(=O)Nc1cnccn1)O2` | -24.39 | -14.77 |
| `Cc1nc(C2CCCN2C(=O)Cc2ccc(F)cc2)ncc1C(N)=O` (centres unmarked) | -19.28 | -5.016 |
| `Cc1cc(C)n(Cc2ccc(C(=O)N3CCOCC3(C)C)cc2)n1` | 4.871 | -39.18 |
| `CCc1ccc(C(COC)NC(=O)c2ccc(NC(C)=O)cc2)o1` (centres unmarked) | 11.69 | 7.74 |
| `CCN(c1ccccc1C(=O)O)S(=O)(=O)c1cccc2cccnc12` | - | -17.98 |
| `O=C(Cc1c(F)cccc1Cl)N1CCC(Nc2cccnn2)CC1` | - | -10.28 |
| `Cc1cnn(Cc2ccc(NC(=O)N3CCCC3)cc2)c1` | -46.58 | 5.561 |
| `Cn1nc(C(=O)NC2CCCCC2)cc1NC(=O)C1CC1` | - | -3.963 |
| `CC(C)CC(=O)N[C@H](C)c1c(-c2ccc(Cl)cc2)noc1C(=O)O.Cl` | - | -4.903 |
| `CCN(C)C1COC2(CCN(C(=O)c3ccc4[nH]ccc4c3)CC2)C1` (centres unmarked) | - | -8.244 |
| `CNc1oc(-c2cc(S(=O)(=O)N3CCCC3)c(C)o2)nc1C#N` | 38.95 | 1.605 |
| `c1cnn(CC2CN(Cc3csc(-c4ccsc4)n3)CCO2)c1` (centres unmarked) | 12.88 | -36.27 |
| `O=C(c1ccccc1)N1CCCC(Nc2ccc(F)cc2)C1` (centres unmarked) | 18.69 | 15.28 |
| `CCc1nc(CC(=O)N2CCn3c(CC)nnc3C2)cs1` | - | -6.42 |
| `CC(C)c1n[nH]c(C2CN(Cc3nnc(C4CC4)n3C)CCO2)n1` (centres unmarked) | -22.57 | 4.108 |
| `Cc1ccccc1OCCn1cnc2oc(C)c(C(=O)O)c2c1=O` | - | -4.18 |
| `CNc1cc(C2CCN2c2ncccn2)nc(C)n1` (centres unmarked) | 19.92 | -6.498 |
| `CSCCC1c2nc[nH]c2CCN1Cc1ccnc2ccccc12` (centres unmarked) | 19.13 | -5.987 |
| `Cc1cc(CNC(=O)N2CCN(c3ccc(Cl)cn3)CC2)c(C)o1` | - | -23.52 |
| `Cc1cc2c(=O)n(CCOCCO)cnc2s1` | 14.22 | 24.92 |
| `Cc1cc(C[C@@H]2COC[C@H]2NCc2ccc(C)c(C)c2)on1.O=C(O)CC(O)(CC(=O)O)C(=O)O` | -9.136 | -10.97 |
| `Cc1ccc(C(=O)N2Cc3ccccc3C2)cc1N1CCNC1=O` | -12.71 | -4.435 |
| `CC(Cn1cccn1)NC(=O)NCc1cccnc1OC1CCCC1` (centres unmarked) | - | 1.873 |
| `CCN(Cc1ccc(N(C)C)cc1)S(=O)(=O)c1cc(Br)ccc1OC` | -4.9 | -35.28 |
| `OC(CN(Cc1ccccc1)Cc1cccnc1)c1cccs1` (centres unmarked) | -12.67 | -3.728 |
| `CN(Cc1nccn1C)c1ccc(-c2nccn2C)nn1` | -13.35 | -15.59 |
| `CCc1nnsc1C(=O)N1CCCC(c2nc3ccccc3[nH]2)C1` (centres unmarked) | -11.87 | -20.91 |
| `CC(C)CC(N)C1=N/C(=C2\N=CN=N2)NO1` (centres unmarked) | 11.07 | -8.687 |
| `c1ccc(Cc2noc(CNC3CCc4ncnn4C3)n2)cc1` (centres unmarked) | 24.52 | 4.224 |
| `Cc1cnn(C2CCCN(C(=O)Cn3ccc(=O)n(C)c3=O)C2)c1` (centres unmarked) | - | -19.97 |
| `O=C(Cn1ccnc1)N(CCO)CCSc1ccc(Cl)cc1` | -63.16 | 9.568 |
| `Cc1ccc(CNCCOc2ccc(S(C)(=O)=O)cc2)cc1` | 10.53 | -26.66 |
| `O=C(NCc1ccccc1)N1CCC(Oc2ncccc2Br)CC1` | -14.28 | 11.19 |

5 of the entries, repeated:

SMILES,Mtb growth Cornell,Mtb heat-shock
[H][C@@]12CN(C)CCO[C@]1([H])CN(S(=O)(=O)c1ccc(OC)cc1)C2,9.361,20.73
CCc1ccc(C(COC)NC(=O)c2ccc(NC(C)=O)cc2)o1 (centres unmarked),11.69,7.74
[H][C@@]12CCCCN(C)[C@]1([H])[C@@H](c1ccccc1)CCN2C(=O)c1ccccn1,-56.75,3.468
CC(C)CC(N)C1=N/C(=C2\N=CN=N2)NO1 (centres unmarked),11.07,-8.687
COc1ccccc1CC(=O)N(C)Cc1cc(C)on1,-6.776,-18.24